Reference: PubChem BioAssay AID1259415 (National Center for Advancing Translational Sciences (NCATS), 2018)
The whole screen tested about 410,000 compounds, of which about 18,000 (4.4%) were called active. The shares of active, inactive and inconclusive entries below differ from those in the screen. No stated cut-off is given here; in the data, active means activity change below about -60%; inconclusive means no clear call, values can overlap the other calls; inactive means above about -39%.

assay: qHTS Assay for inhibitors of the human cytomegalovirus (HCMV); conditions: HFF cells, HCMV-luciferase reporter, 72 h; at 57.5 µM; stronger effect = lower value
Procedure, shortened: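 Cell-based, HFFs, 1000 cells/well, 16 h 37C; cpds in DMSO + HCMV-luc, MOI 1 PFU/cell; 72 h 37C; OneGlo luminescence after 5 min RT; norm. to buffer vs Salinomycin 10uM.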
On the % scale 0 is the no-effect control and ±100 the full control effect.

SMILES	activity change, negative = inhibition
CSc1n[nH]c2nc3c(c(=O)n12)C1(CCCC1)Cc1ccccc1-3	inconclusive: -42.1%
Cc1ccc(NS(=O)(=O)c2ccc(NC(=O)c3cccs3)cc2)c(C)c1	inconclusive: -55.6%
C=CS(=O)(=O)N[C@@H](CSSC[C@H](NS(=O)(=O)C=C)C(=O)OC)C(=O)OC	inactive: -25.3%
Cc1nn(Cc2ccccc2)c(C)c1NC(=O)c1cc(-c2ccc3c(c2)OCO3)on1	inconclusive: -41%
CCOc1ccc(C2c3[nH]c4ccccc4c3C[C@H]3C(=O)N(C4CCN(Cc5ccccc5)CC4)CC(=O)N23)cc1OC (stereo partly drawn)	inactive: 7.18%
CC1(C(=O)O)CCCN1C(=O)c1cccc(C(F)(F)F)c1 (stereo not drawn)	inactive: 2.55%
O=C(CSc1nnc2scc(-c3ccccc3)n12)c1ccc2c(c1)OCCO2	inactive: 22.9%
COC(=O)c1cccc(NS(=O)(=O)c2ccc(OC)c(C(=O)N3CCOCC3)c2)c1C	inactive: -4.33%
Cn1nc(CC(=O)Nc2cccc3ncccc23)c2ccccc2c1=O	active: -66.6%
COc1ccc(NC(=O)CN(C)C(=O)c2cc3c(s2)CCCCC3)cc1	inconclusive: -47.8%
Cc1ccc(C)c(NC(=O)CSc2nncn3c2cc2sccc23)c1	inconclusive: -45.9%
COc1ccc(C2Nc3cccc(O)c3C(=O)N2Cc2ccccc2)cc1COc1ccc(NC(C)=O)cc1 (stereo not drawn)	inactive: -26.7%
CCC(c1nnnn1-c1c(C)cccc1C)N1CCN(C/C=C/c2ccccc2)CC1 (stereo not drawn)	active: -67.7%
CCOC(=O)c1ccc(N2C(=O)c3[nH]nc(-c4ccc(OC)cc4)c3C2c2ccc(C)cc2)cc1 (stereo not drawn)	active: -82.7%
COc1ccc(/C=N/n2cnc3c([nH]c4ccc(F)cc43)c2=O)cc1CSc1ccccn1	inconclusive: -44.6%
COc1ccc(N2CCN(C(=O)CCN3C(=O)C4C5C=CC(C5)C4C3=O)CC2)cc1 (stereo not drawn)	inconclusive: -50.7%
CCOc1ccc(Nc2c(S(=O)(=O)c3ccc(C)cc3)cnc3ccccc23)cc1	inconclusive: -53.8%
CCOc1c([N+](=O)[O-])cc2c(C)c(C(=O)N3CCN(C)CC3)oc2c1OCC	inconclusive: -52.6%
CN1C(=O)CSc2ccc(NC(=O)Nc3ccccn3)cc21	inactive: -16.4%
CC1CCN(C(=O)CSc2nc3c(c(=O)n2C)SCC3)CC1	inconclusive: -46%
COc1ccc(NC(=O)C(=O)NCCN2CCN(C(=O)c3ccco3)CC2)cc1	inactive: -8.46%

SMILES	activity change, negative = inhibition
Cc1cccc(OCCn2c(S(=O)(=O)O)nc3ccccc32)c1	inconclusive: -44.9%
COc1ccc(-n2c(SCC(=O)NCC3CCCO3)nc3ccccc32)cc1 (stereo not drawn)	inconclusive: -43.7%
CCc1ccc(-n2c(=O)c3cccnc3n2CC(=O)N(CC)c2cccc(C)c2)cc1	inconclusive: -41%
CCN1/C(=C/c2cc[n+](CCCS(=O)(=O)[O-])c3ccccc23)Sc2ccccc21	inconclusive: -43.2%
CC(=O)Nc1ccc(S(=O)(=O)N2CCN(Cc3ccccc3[N+](=O)[O-])CC2)cc1	inconclusive: -44.9%
COc1cc(NC(=O)C2CC2)c(OC)cc1NC(=O)c1ccco1	inconclusive: -49.5%
CC(OC(=O)/C=C/c1ccccc1Cl)C(=O)NC1CCCCC1C (stereo not drawn)	inactive: -28.1%
CCOc1ccccc1NC(=O)C(OC(=O)c1cc(C)oc1C)c1ccccc1 (stereo not drawn)	inconclusive: -46.4%
O=C1CN=C(c2ccc[nH]2)c2cc(Cl)ccc2N1	active: -94.3%
COc1ccccc1C(=O)Nc1ccnn1C1CCN(C(=O)c2cnsn2)CC1	active: -103%
Cc1nc2cccnc2nc1C	inconclusive: -41.1%
Clc1cccc(Cl)c1C[n+]1ccc2ccccc2c1	active: -94%
c1cnc2nc(CSc3ncn[nH]3)cn2c1	inconclusive: -41%
CSc1ccc(Cl)c(C(=O)Nc2cc(S(=O)(=O)N3CCOCC3)ccc2N2CCOCC2)c1	inactive: 58.3%
CSc1ccccc1NC(=O)c1ccccc1C	inconclusive: -40.8%
CC(=NCc1ccco1)c1c(O)n(-c2ccc(Cl)cc2)c(=O)[nH]c1=O	inconclusive: -57.4%
COc1ccc(OC)c(S(=O)(=O)NC(=O)C2(C)CCN2C(=O)C2(c3ccc(Cl)cc3)CC2)c1 (stereo not drawn)	inconclusive: -45.6%
Cc1cc(C)c2cc3c(N)c(C(=O)Nc4c(C)[nH]c(=O)[nH]c4=O)sc3nc2c1	inconclusive: -59.5%
O=C(O)c1nn(CCOc2c(Cl)cccc2Cl)c(=O)c2ccccc12	active: -74.7%
O=C(O)CNS(=O)(=O)c1ccc(C2CCCCC2)cc1	inconclusive: -55.1%

In another format: entries from further up

| SMILES | activity change, negative = inhibition |
| --- | --- |
| COC(=O)c1cccc(NS(=O)(=O)c2ccc(OC)c(C(=O)N3CCOCC3)c2)c1C | inactive: -4.33% |
| Cn1nc(CC(=O)Nc2cccc3ncccc23)c2ccccc2c1=O | active: -66.6% |
| COc1ccc(NC(=O)CN(C)C(=O)c2cc3c(s2)CCCCC3)cc1 | inconclusive: -47.8% |
| Cc1ccc(C)c(NC(=O)CSc2nncn3c2cc2sccc23)c1 | inconclusive: -45.9% |
| COc1ccc(C2Nc3cccc(O)c3C(=O)N2Cc2ccccc2)cc1COc1ccc(NC(C)=O)cc1 (stereo not drawn) | inactive: -26.7% |
| CCC(c1nnnn1-c1c(C)cccc1C)N1CCN(C/C=C/c2ccccc2)CC1 (stereo not drawn) | active: -67.7% |

(cont.)

SMILES	activity change, negative = inhibition
CCOC(=O)c1ccc(N=C2C(=S)N(c3ccc(C(=O)OCC)cc3)C(=N)N2/N=C/c2ccccc2)cc1	inactive: -2.45%
CCCC1S/C(=N/N=C/c2ccc(OC)cc2)N(Cc2ccccc2)C1=O (stereo not drawn)	inactive: -13.9%
Cc1c(CN2CCC(C(=O)Nc3ccc(Oc4ccccc4)nc3)CC2)cnn1C	inconclusive: -43%
COc1ccc(CCNC(=O)CCCn2c(=O)c3ccccc3n(CC(=O)Nc3c(C)cc(C)cc3C)c2=O)cc1OC	inactive: -7.75%
COc1ccc(NC(=O)c2cccc(S(=O)(=O)N3CCc4ccccc43)c2)cn1	inconclusive: -53.6%
CCn1c(SCC(=O)c2cccs2)nnc1-c1cccs1	inactive: 41.9%
CC(C)CC(=O)Nc1ccc2c3c(cccc13)CC2	inconclusive: -54.4%
Cn1cccc1C(=O)OCC(=O)NC(=O)NC1CCCCC1	inactive: 67.3%
O=c1onc(-c2ccccc2)n1Cc1ccc([N+](=O)[O-])cc1	active: -75.1%
O=C(CSc1nnnn1-c1ccc(F)cc1)Nc1ccc(N2CCOCC2)c(Cl)c1	inconclusive: -45.5%
CN(Cc1ccco1)c1ncnc2ccc(-c3ccc4c(ccn4C)c3)cc12	active: -99.2%
Cc1ccccc1CN1CCN(c2ccc(Cl)cc2)CC1	inconclusive: -58.8%
Cn1c(=O)[nH]c(=O)c2c1nc(CN1CCN(c3cccc(Cl)c3)CC1)n2CCc1ccccc1	inconclusive: -45.7%
CC(=NCCCN(C)C)C1=C(O)c2ccccc2C1=O	inconclusive: -42.3%
NC(N)=NS(=O)(=O)c1ccc(NC(=S)NC(=O)c2sc3ccccc3c2Cl)cc1	inconclusive: -48.6%
CCN(CC)S(=O)(=O)c1cccc(C(=O)N/N=C/c2ccc(OC)c(O)c2)c1	inconclusive: -56.1%
Cc1ccc(NC(=O)N2CCCN(C(=O)OC(C)(C)C)CC2)cc1Cl	inconclusive: -48.4%
CC(C)=CCc1c(O)ccc(C(=O)Cc2ccccc2)c1O	inconclusive: -47.4%
CCN1C(=C2C(=O)c3ccccc3C2=O)C=Cc2ccccc21	inactive: 33%
Cc1cc(Nc2ccccc2)nn1C(=O)c1ccc(Br)cc1	inconclusive: -46.3%
N#CCCn1cc(C(=O)Nc2ccc([N+](=O)[O-])cc2)c(-c2cc3ccccc3o2)n1	inconclusive: -43.2%

SMILES	activity change, negative = inhibition
CCn1cc2nc(SCc3cccc(C(F)(F)F)c3)n(CCc3ccccc3)c(=O)c2n1	inconclusive: -40.1%
O=C(NCc1cccc(F)c1)c1ccc(CS(=O)c2ccccc2Cl)o1 (stereo not drawn)	inactive: -8.95%
O=C(CCN1C(=O)[C@H]2CC=CC[C@H]2C1=O)NCc1nc(-c2ccccc2)no1	inconclusive: -43.3%
Cn1c(=O)c(=O)n(C)c2cc(S(=O)(=O)N3CCN(c4ccccc4F)CC3)ccc21	inconclusive: -59.3%
O=C(NCC1CCCO1)c1cccc(NC(=O)c2cccs2)c1 (stereo not drawn)	inactive: -31.2%
O=S1(=O)N[C@H](Cc2ccccc2)COc2cccc(NCCO)c21	inactive: -3.71%
Cc1ccc(NC(=O)CN2CCN(Cc3ccccc3)CC2)c(Br)c1	inconclusive: -40.8%
N/C(=N\NC(=O)c1sccc1OCc1ccc(Cl)cc1Cl)c1ccccn1	inconclusive: -49.1%
CN(c1ccc(C(=O)NCCSCc2ccco2)cc1)S(C)(=O)=O	inconclusive: -54.1%
CC(Cl)C(=O)c1ccc2c(c1)CCN2C(=O)C1CC1 (stereo not drawn)	inconclusive: -53.9%
CCc1nc2c(OCc3ccc(Cl)cc3)cccn2c1N(C=O)Cc1ccc(OC)cc1	inconclusive: -40.9%
Cc1ccc(-n2ncc3c(SCC(=O)Nc4cc(C)on4)ncnc32)c(C)c1	inconclusive: -45.3%
COc1cccc(C(=O)Nc2ccc(C(=O)NCC(C)C)cc2)c1	inconclusive: -40.4%
CN(C1CCCCC1)S(=O)(=O)c1ccc(C(=O)Nc2sc3c(c2C(N)=O)CC(C)(C)NC3(C)C)cc1	inconclusive: -40.4%
O=C(C[C@H]1C/C=C\C[C@H](NC(=O)OCC2c3ccccc3-c3ccccc32)C(=O)OC[C@H](Cc2ccccc2)NC1=O)N[C@H](CO)Cc1ccccc1	inconclusive: -49.5%
CCc1nc(-c2cc(S(=O)(=O)N3CCN(c4ccc(F)cc4)CC3)ccc2OC)no1	inactive: 2.52%
COc1ccc(N2CCN(C(=O)C3CCCN(S(=O)(=O)c4ccc(F)cc4)C3)CC2)cc1 (stereo not drawn)	inconclusive: -51.1%
CCOc1ccc(N2CC(C(=O)Nc3ccc(S(=O)(=O)Nc4nccs4)cc3)CC2=O)cc1 (stereo not drawn)	inconclusive: -40.6%
O=C(Nc1cccc(-c2nc3ncccc3o2)c1)c1ccc(-c2cccc(Cl)c2Cl)o1	active: -91.5%
CCN(CC)S(=O)(=O)c1ccc(N2CCCCC2)c(C(=O)Nc2ccccc2N2CCOCC2)c1	inconclusive: -49.8%
